# Primary screen of a compound library

Data taken from ChEMBL document CHEMBL3988442, “University of Dundee, Small-Polar-MMV Screening Library” (2021).

Results are given as percent effect.
How 0% and 100% were set is not recorded. Most values in the screen are low, and negative values occur.
Compounds were drawn at random from those tested, without regard to their results.
Two or more numbers in one place are separate tests of the same structure; such repeats can differ widely.

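Viability assay of Plasmodium falciparum sporozoites; the read-out is not stated. The concentration is filed as 10 mM, unlikely as a test dose, so the dose is not known. Higher reads as lower viability (inferred: compounds with an IC50 in retests scored well above the rest). Strong results were mostly tested again. Of about 34,000 compounds tested this way, about 280 (0.84%) reached 50% or more in at least one test.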

| SMILES | effect |
|---|---|
| `C1CC(CN2CCOCC3(CCN(C4CCOCC4)C3)C2)CCO1` (centres unmarked) | -14.21 |
| `[H][C@@]12C[C@@H](OC)C[C@]1([H])CN(C(=O)c1cc3cccc(F)c3[nH]1)C2` | 3.017 |
| `COCCOc1ccccc1C(=O)N1CCCC(c2cc(C)[nH]n2)C1` (centres unmarked) | -7.598 |
| `CCCN(C(=O)COCC)c1cccc(C)c1` | -11.97 |
| `[H][C@@]12CCN(C(C)=O)C[C@]1(C(=O)NCc1ccco1)CCO2` | 0.5411 |
| `COCCN1CCC(c2cncc(N(C)C)n2)CC1` | -1.701 |
| `O=C(O)C(F)(F)F.[H][C@]12CCCN(CC3CC3)[C@@]1([H])CN(C(=O)c1ccco1)C2` | -5.839 |
| `CN(C)c1cc(CNC(=O)c2n[nH]c(=O)c3ccccc23)ccn1` | 2.347 |
| `Cc1ccc(S(=O)(=O)N2CCC3(CC(C(=O)NCC(C)C)=NO3)C2)cc1` (centres unmarked) | -2.19 |
| `Cc1nc(C)n(C2CCCN(C(=O)COCc3ccccc3)C2)n1` (centres unmarked) | 0.9812 |
| `COc1cccc(CN(C)C(=O)NCc2c(C)cc(C)[nH]c2=O)c1` | -2.962 |
| `Cn1cc(C2COC3(CCN(C(=O)c4cccc(O)c4)CC3)C2)cn1` (centres unmarked) | 5.069 |
| `O=C(O)C(F)(F)F.O=C(O)C(F)(F)F.[H][C@@]12COC[C@]1(C(=O)NCc1ccccn1)CN(Cc1ccsc1)C2` | 19.39 |
| `CCN(CC)S(=O)(=O)N1C[C@@H](O)[C@H](Oc2cccc(F)c2)C1` | 4.279 |
| `CCN1CCCC1Cn1ccc2ccc(C(=O)OC)cc2c1=O` (centres unmarked) | -5.175 |
| `CC(O)CN1CCN(C(=O)c2cc3ccccc3n2C)CC1` (centres unmarked) | 4.603 |
| `Cc1csc(CNC(=O)N(C)Cc2ccc([S+](C)[O-])cc2)n1` (centres unmarked) | -10.33 and -5.926 |
| `COCCNC(=O)c1nc(-c2cn(C)cn2)n2ccccc12` | 2.47 |
| `O=C(Nc1ccccn1)N(CCO)Cc1ccccc1Br` | 2.416 |
| `O=C(NCCCOCC1CCCO1)c1cccnc1N1CCCC1` (centres unmarked) | 11.5 |
| `Cn1ncc(NCc2cccc(F)c2)c(Cl)c1=O` | 2.958 |
| `[H][C@]12CCN(C(=O)c3cccc(F)c3)C[C@@]1([H])OCCN(c1ncccn1)C2` | -10.91 |
| `CC(=O)N1CCCC(c2ccc(Nc3nc(C)cc(C)n3)cn2)C1` (centres unmarked) | -15.11 |
| `CN(CCCOc1ccc(F)cc1)Cc1nc2c(cnn2C)c(=O)[nH]1` | 2.037 |
| `O=S(=O)(CCCN1CCCC1Cn1cccn1)c1ccccc1` (centres unmarked) | 8 |
| `Fc1ccc(CN2CCCn3nnc(COCC4CC4)c3C2)cc1.O=C(O)C(F)(F)F` | -0.2604 |
| `Cc1ncc(C(=O)NCCNC(=O)c2ccccc2)s1` | -7.079 |
| `CS(=O)(=O)Cc1cc(F)ccc1NCc1nnsc1Cl` | -1.173 |
| `CCc1nc(CN2CCCN(C(=O)COC(C)C)CC2)cs1` | 1.81 |
| `Cc1cnc2n(c1=O)C(CC(=O)NCc1cc(-c3cccs3)on1)CS2` (centres unmarked) | 12.63 |
| `COc1ncc(CN(CCCN2CCOCC2)Cc2ccc(C)o2)cn1.O=C(O)CC(O)(CC(=O)O)C(=O)O` | 0.7167 |
| `Cc1c(C2CCCN(C(=O)c3ccn(C)n3)C2)n2c(nc1=O)CCC2` (centres unmarked) | 13.22 |
| `Cc1cc(CN2CCN(C(=O)NCc3c(C)noc3C)CC2)on1` | 4.578 |
| `Cc1cnc(C(=O)N2CCOCC2c2ccccc2)cn1` (centres unmarked) | -8.165 and -12.7 |
| `Cl.[H][C@@]12CCN(C3CCCCC3)C[C@]1([H])[C@@H](c1ccsc1)CN2C(=O)C(C)(C)C` | 6.556 |
| `CCc1nc(C2CCCN2C(=O)c2cc(Cl)c[nH]2)no1` (centres unmarked) | 1.775 |
| `CCc1c(C)nc2n(c1=O)CC(C(=O)Nc1ccccc1C)CS2` (centres unmarked) | 5.998 |
| `O=C(O)C(F)(F)F.[H][C@@]12COC[C@]1(COCC(=O)N1CCCC1)CN(C1CCC1)C2` | 10.62 |
| `CC(C)COc1cncc(NCC(O)c2ccco2)n1` (centres unmarked) | -3.614 |
| `COc1cccc(CNc2nc(O)cc(C3CC(=O)N(C)C3)n2)c1` (centres unmarked) | -0.3555 |
| `CC[C@@H]1N(Cc2ccncc2)CCC[C@]12CCC(=O)N2C.O=C(O)C(F)(F)F.O=C(O)C(F)(F)F` | -1.986 |
| `Cc1nsc2ncc(C(=O)N3CCCC3c3cnn(C)c3)cc12` (centres unmarked) | 1.434 |
| `CC(=O)N1CC2(CCN(S(=O)(=O)N(C)C)CC2)C2(CCNC2=O)C1` (centres unmarked) | 4.106 |
| `CCc1cc(C(=O)N2CCCC2c2nc(O)cc(CC)n2)on1` (centres unmarked) | 1.865 |
| `CCS(=O)(=O)c1ccc2c(c1)N1CCS(=O)(=O)N=C1O2` | -6.449 |
| `Cc1cnn(CC2CN(CC(=O)N(C)Cc3ccccc3)CCO2)c1` (centres unmarked) | 10.32 |
| `O=C(O)C(F)(F)F.[H][C@]12CC[C@@]3(N=C(CC)N(CC)C3=O)[C@@]1([H])CN(Cc1ccccc1F)C2` | -22.55 |
| `O=S(=O)(NCC1(O)CCOc2ccccc21)c1cccs1` (centres unmarked) | -13.81 |
| `[H][C@@]12COC[C@]1(COCc1cccnc1)CN(C(=O)CCOC)C2` | -3.017 |
| `CC1CCN(S(=O)(=O)N2CCC(Oc3cnccn3)CC2)CC1` | -1.047 |
| `Cc1ccc(-c2cc(N)c(=O)n(CC(=O)NCC3CC3)n2)s1` | -7.227 |
| `COc1cc(F)c(NCc2nc3ccccc3n2C)cc1OC` | 61.41 and 85.71 and 92.05 |
| `CN1CCN(c2nccc(-c3cncnc3C3CCCCC3)n2)CC1` | 1.27 |
| `O=C(CCc1ccccn1)N1CCCC1` | 0.7823 |
| `COC(=O)c1ccc(Cl)c(CN(C)Cc2ncnn2C)c1` | -0.6529 |
| `Cc1ccc(OC2(C(=O)O)CCN(C(=O)c3ccoc3C)CC2)cn1` | 11.36 |
| `O=C(COCc1nc(-c2ccncc2)no1)N1CCCC1` | -5.234 |